Measured values published in doi:10.1101/2023.04.21.537819, “DNA damage-induced interaction between a lineage addiction oncogenic transcription factor and the MRN complex shapes a tissue-specific DNA Damage Response and cancer predisposition” (bioRxiv, 2023).

Amino acid sequences for entries named in this document (tags omitted). A change or cut given only in a name is not applied to a line headed by its entry. Chains listed by the source or under a name are the forms on record and can include a tag or linker.
BirA*-FLAG-MITF (O75030, form named): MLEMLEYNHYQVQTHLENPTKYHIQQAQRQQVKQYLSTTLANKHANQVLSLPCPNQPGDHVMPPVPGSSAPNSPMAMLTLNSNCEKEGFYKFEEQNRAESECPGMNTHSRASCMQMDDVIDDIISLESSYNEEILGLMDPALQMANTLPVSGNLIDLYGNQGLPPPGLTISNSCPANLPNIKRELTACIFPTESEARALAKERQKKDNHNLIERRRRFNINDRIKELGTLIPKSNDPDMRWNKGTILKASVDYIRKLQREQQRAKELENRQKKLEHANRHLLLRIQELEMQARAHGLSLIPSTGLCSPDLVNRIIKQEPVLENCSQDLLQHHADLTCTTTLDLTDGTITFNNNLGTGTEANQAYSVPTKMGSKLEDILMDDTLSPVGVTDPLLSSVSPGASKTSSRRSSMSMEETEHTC
UniProt P51531: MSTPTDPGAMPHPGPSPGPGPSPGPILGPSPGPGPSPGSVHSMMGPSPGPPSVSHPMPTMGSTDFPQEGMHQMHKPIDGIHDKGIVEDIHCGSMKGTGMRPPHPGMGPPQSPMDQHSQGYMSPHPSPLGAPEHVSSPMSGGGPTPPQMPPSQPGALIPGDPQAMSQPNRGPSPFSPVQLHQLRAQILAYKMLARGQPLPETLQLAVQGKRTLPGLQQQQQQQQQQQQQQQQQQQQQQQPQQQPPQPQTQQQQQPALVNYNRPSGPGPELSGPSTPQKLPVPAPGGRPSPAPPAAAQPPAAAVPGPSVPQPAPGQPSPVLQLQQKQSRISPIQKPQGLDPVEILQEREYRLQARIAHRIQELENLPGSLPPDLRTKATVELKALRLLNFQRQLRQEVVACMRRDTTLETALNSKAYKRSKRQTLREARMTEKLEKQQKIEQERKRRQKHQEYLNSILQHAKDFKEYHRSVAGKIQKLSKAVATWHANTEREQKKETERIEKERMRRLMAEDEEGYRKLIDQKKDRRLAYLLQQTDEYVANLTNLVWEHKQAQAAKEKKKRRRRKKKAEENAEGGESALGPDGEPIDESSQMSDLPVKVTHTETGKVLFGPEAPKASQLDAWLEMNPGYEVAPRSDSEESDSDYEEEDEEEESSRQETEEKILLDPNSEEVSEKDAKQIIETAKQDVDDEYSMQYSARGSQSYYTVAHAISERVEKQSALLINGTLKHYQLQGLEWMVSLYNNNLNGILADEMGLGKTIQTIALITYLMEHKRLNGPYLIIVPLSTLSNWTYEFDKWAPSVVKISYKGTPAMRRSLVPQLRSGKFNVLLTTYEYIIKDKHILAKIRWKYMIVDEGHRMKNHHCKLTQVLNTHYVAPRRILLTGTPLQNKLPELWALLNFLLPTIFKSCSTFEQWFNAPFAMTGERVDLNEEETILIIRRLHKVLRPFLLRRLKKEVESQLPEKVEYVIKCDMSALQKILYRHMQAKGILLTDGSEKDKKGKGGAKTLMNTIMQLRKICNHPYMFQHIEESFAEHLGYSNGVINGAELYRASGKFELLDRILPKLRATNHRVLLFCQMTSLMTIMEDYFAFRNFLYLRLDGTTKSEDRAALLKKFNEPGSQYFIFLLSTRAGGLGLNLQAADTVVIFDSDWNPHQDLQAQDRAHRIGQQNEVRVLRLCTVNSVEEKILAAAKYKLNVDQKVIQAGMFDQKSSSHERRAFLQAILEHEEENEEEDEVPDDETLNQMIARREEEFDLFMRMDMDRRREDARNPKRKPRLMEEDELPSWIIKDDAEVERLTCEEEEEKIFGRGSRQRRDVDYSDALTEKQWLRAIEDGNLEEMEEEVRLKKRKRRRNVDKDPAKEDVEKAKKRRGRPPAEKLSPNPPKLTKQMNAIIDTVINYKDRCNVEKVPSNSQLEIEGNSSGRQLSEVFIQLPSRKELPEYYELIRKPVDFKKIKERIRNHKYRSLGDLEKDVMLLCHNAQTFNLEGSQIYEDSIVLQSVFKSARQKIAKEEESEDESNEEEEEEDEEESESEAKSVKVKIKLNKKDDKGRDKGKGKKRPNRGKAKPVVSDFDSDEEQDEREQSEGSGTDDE
UniProt P19532: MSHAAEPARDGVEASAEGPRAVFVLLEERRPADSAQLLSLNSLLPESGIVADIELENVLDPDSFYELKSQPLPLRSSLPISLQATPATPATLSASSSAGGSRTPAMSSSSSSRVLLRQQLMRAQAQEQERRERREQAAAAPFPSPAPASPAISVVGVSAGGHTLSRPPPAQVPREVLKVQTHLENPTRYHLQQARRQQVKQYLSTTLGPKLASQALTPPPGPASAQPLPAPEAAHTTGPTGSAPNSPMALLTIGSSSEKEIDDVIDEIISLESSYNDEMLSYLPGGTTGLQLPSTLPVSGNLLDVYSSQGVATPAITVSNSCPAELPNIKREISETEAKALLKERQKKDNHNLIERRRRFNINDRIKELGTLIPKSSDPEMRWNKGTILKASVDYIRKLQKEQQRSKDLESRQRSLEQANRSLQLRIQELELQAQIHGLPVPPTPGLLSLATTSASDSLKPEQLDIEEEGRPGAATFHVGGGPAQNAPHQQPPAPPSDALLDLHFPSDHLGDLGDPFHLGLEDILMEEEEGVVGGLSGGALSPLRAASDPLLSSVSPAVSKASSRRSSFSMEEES
UniProt P51784: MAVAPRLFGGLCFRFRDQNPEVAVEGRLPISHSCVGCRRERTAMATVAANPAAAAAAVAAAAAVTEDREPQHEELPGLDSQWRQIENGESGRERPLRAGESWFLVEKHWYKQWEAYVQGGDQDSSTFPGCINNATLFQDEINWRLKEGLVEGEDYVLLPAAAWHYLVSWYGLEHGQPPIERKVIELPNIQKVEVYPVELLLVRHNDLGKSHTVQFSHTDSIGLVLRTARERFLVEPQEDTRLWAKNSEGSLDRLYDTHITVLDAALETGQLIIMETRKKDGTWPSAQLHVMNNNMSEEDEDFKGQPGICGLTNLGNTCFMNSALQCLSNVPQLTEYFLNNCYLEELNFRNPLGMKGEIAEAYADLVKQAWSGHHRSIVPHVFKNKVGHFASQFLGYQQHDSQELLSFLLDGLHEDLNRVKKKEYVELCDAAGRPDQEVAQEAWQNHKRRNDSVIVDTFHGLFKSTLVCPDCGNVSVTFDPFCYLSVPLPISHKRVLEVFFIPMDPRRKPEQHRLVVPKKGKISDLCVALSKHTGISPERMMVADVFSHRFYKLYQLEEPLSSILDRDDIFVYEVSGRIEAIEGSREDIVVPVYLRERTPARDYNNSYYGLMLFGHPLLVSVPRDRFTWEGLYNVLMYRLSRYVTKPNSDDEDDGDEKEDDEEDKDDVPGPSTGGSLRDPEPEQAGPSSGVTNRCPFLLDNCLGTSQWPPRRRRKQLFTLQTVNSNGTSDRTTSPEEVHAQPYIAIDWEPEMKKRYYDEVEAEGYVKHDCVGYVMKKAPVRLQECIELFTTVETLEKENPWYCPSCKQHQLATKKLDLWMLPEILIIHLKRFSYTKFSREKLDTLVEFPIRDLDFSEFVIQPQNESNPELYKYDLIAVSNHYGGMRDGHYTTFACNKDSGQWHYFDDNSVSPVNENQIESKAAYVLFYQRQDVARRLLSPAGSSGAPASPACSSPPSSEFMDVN
UniProt O75925: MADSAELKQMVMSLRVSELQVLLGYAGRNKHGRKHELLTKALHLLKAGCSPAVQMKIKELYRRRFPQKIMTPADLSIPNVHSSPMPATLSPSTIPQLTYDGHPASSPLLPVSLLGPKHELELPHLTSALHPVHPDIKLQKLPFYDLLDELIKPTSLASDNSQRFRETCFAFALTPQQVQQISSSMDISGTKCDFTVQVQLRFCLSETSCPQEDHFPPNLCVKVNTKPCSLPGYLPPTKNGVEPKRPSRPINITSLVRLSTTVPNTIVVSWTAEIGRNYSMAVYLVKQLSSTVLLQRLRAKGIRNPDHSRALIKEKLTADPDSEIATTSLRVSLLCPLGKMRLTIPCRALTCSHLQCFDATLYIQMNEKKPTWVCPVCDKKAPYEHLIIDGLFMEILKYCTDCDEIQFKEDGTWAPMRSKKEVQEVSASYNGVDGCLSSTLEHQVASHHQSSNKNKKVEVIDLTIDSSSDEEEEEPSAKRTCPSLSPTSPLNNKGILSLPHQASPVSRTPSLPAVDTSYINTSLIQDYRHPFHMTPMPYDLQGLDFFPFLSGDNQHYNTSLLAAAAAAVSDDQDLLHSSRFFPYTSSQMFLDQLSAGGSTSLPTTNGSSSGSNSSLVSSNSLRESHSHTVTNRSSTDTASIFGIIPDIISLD
UniProt Q15596: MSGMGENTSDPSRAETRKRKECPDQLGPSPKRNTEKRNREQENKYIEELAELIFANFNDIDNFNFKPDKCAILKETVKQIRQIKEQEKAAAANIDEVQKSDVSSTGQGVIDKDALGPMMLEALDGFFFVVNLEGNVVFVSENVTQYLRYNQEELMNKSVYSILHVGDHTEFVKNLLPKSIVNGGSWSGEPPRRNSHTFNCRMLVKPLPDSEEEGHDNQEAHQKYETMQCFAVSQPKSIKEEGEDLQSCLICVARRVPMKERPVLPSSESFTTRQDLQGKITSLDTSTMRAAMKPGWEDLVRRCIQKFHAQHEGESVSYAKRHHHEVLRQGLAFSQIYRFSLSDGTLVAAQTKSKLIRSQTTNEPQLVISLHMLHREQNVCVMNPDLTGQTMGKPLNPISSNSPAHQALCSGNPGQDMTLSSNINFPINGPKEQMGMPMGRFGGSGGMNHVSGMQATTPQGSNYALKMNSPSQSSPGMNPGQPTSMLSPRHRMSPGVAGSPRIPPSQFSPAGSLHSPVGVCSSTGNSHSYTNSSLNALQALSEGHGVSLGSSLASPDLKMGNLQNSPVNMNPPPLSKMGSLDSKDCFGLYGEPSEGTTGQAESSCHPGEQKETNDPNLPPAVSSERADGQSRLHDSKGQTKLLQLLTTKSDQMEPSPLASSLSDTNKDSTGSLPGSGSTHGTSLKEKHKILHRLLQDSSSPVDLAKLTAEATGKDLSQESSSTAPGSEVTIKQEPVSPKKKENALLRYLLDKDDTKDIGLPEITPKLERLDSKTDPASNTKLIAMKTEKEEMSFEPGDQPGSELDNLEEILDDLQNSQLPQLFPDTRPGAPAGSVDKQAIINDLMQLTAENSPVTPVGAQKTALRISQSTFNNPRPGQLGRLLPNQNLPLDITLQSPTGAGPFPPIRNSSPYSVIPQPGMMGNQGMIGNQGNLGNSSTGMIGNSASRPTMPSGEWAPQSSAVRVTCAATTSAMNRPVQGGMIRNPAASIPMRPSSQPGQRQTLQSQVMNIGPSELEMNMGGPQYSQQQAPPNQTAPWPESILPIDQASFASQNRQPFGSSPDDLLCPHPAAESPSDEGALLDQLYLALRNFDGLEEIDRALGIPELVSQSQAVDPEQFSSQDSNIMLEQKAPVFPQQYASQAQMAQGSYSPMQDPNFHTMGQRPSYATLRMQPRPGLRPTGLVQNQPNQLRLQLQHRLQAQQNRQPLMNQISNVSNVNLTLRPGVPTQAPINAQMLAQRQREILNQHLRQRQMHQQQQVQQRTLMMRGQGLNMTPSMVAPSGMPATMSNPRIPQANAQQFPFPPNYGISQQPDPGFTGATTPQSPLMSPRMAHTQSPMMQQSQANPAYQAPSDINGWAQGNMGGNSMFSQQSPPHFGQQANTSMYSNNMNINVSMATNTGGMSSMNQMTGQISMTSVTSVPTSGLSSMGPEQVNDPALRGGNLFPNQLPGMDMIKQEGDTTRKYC
UniProt P62330: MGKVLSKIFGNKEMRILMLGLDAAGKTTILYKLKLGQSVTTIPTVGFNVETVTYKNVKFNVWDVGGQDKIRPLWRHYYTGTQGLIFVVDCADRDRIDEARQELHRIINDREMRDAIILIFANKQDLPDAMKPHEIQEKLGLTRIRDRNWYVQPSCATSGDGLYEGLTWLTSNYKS
UniProt P05549: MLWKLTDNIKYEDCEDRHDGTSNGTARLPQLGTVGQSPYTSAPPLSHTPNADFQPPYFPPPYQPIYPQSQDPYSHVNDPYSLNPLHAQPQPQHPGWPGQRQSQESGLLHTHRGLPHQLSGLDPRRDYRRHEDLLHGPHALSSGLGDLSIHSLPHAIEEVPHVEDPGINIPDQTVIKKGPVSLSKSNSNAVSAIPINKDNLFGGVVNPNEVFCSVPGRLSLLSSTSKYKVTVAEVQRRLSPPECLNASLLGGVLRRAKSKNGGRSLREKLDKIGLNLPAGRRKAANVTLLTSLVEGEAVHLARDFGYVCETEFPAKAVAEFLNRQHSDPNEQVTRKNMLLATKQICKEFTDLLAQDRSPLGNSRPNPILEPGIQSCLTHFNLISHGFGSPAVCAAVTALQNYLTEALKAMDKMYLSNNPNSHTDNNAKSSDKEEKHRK

Biological target: BirA*-FLAG-MITF (human) (UniProt O75030)
Assay: proximity labelling; BioID in HEK293 cells stably expressing doxycycline-inducible BirA*-FLAG-MITF (control BirA*-FLAG-NLS), untreated or treated with CPT (20 nM, 4 h); biotinylated proteins captured on streptavidin-Sepharose beads 3 h at 4°C, mass spectrometry; SAINTexpress, 1% false discovery …

Molecule: RAD50 (endogenous) (from UniProt Q92878 1-1312)
binding: binds

Molecule: BRPF1 (from UniProt P55201 1-1214)
binding: binds

Molecule: PAXIP1 (from UniProt Q6ZW49 1-1069)
binding: binds

Molecule: SMARCA2 (from UniProt P51531 1-1590)
binding: binds

Molecule: TFE3 (from UniProt P19532 1-575)
binding: binds

Molecule: USP11 (from UniProt P51784 1-963)
binding: binds

Molecule: PIAS1 (from UniProt O75925 1-651)
binding: binds

B1: RAE1 (protein, UniProt P78406 1-368)
chain: MSLFGTTSGFGTSGTSMFGSATTDNHNPMKDIEVTSSPDDSIGCLSFSPPTLPGNFLIAGSWANDVRCWEVQDSGQTIPKAQQMHTGPVLDVCWSDDGSKVFTASCDKTAKMWDLSSNQAIQIAQHDAPVKTIHWIKAPNYSCVMTGSWDKTLKFWDTRSSNPMMVLQLPERCYCADVIYPMAVVATAERGLIVYQLENQPSEFRRIESPLKHQHRCVAIFKDKQNKPTGFALGSIEGRVAIHYINPPNPAKDNFTFKCHRSNGTNTSAPQDIYAVNGIAFHPVHGTLATVGSDGRFSFWDKDARTKLKTSEQLDQPISACCFNHNGNIFAYASSYDWSKGHEFYNPQKKNYIFLRNAAEELKPRNKK
binding: binds

B2: TRIM24 (protein, UniProt O15164 1-1050)
chain: MEVAVEKAVAAAAAASAAASGGPSAAPSGENEAESRQGPDSERGGEAARLNLLDTCAVCHQNIQSRAPKLLPCLHSFCQRCLPAPQRYLMLPAPMLGSAETPPPVPAPGSPVSGSSPFATQVGVIRCPVCSQECAERHIIDNFFVKDTTEVPSSTVEKSNQVCTSCEDNAEANGFCVECVEWLCKTCIRAHQRVKFTKDHTVRQKEEVSPEAVGVTSQRPVFCPFHKKEQLKLYCETCDKLTCRDCQLLEHKEHRYQFIEEAFQNQKVIIDTLITKLMEKTKYIKFTGNQIQNRIIEVNQNQKQVEQDIKVAIFTLMVEINKKGKALLHQLESLAKDHRMKLMQQQQEVAGLSKQLEHVMHFSKWAVSSGSSTALLYSKRLITYRLRHLLRARCDASPVTNNTIQFHCDPSFWAQNIINLGSLVIEDKESQPQMPKQNPVVEQNSQPPSGLSSNQLSKFPTQISLAQLRLQHMQQQVMAQRQQVQRRPAPVGLPNPRMQGPIQQPSISHQQPPPRLINFQNHSPKPNGPVLPPHPQQLRYPPNQNIPRQAIKPNPLQMAFLAQQAIKQWQISSGQGTPSTTNSTSSTPSSPTITSAAGYDGKAFGSPMIDLSSPVGGSYNLPSLPDIDCSSTIMLDNIVRKDTNIDHGQPRPPSNRTVQSPNSSVPSPGLAGPVTMTSVHPPIRSPSASSVGSRGSSGSSSKPAGADSTHKVPVVMLEPIRIKQENSGPPENYDFPVVIVKQESDEESRPQNANYPRSILTSLLLNSSQSSTSEETVLRSDAPDSTGDQPGLHQDNSSNGKSEWLDPSQKSPLHVGETRKEDDPNEDWCAVCQNGGELLCCEKCPKVFHLSCHVPTLTNFPSGEWICTFCRDLSKPEVEYDCDAPSHNSEKKKTEGLVKLTPIDKRKCERLLLFLYCHEMSLAFQDPVPLTVPDYYKIIKNPMDLSTIKKRLQEDYSMYSKPEDFVADFRLIFQNCAEFNEPDSEVANAGIKLENYFEELLKNLYPEKRFPKPEFRNESEDNKFSDDSDDDFVQPRKKRLKSIEERQLLK
binding: binds

B3: C14orf133 (protein, UniProt Q9H9C1 1-493)
chain: MNRTKGDEEEYWNSSKFKAFTFDDEDDELSQLKESKRAVNSLRDFVDDDDDDDLERVSWSGEPVGSISWSIRETAGNSGSTHEGREQLKSRNSFSSYAQLPKPTSTYSLSSFFRGRTRPGSFQSLSDALSDTPAKSYAPELGRPKGEYRDYSNDWSPSDTVRRLRKGKVCSLERFRSLQDKLQLLEEAVSMHDGNVITAVLIFLKRTLSKEILFRELEVRQVALRHLIHFLKEIGDQKLLLDLFRFLDRTEELALSHYREHLNIQDPDKRKEFLKTCVGLPFSAEDSAHIQDHYTLLERQIIIEANDRHLESAGQTEIFRKHPRKASILNMPLVTTLFYSCFYHYTEAEGTFSSPVNLKKTFKIPDKQYVLTALAARAKLRAWNDVDALFTTKNWLGYTKKRAPIGFHRVVEILHKNNAPVQILQEYVNLVEDVDTKLNLATKFKCHDVVIDTYRDLKDRQQLLAYRSKVDKGSAEEEKIDALLSSSQIRWKN
binding: binds

B4: LZTS2 (protein, UniProt Q9BRK4 1-669)
chain: MAIVQTLPVPLEPAPEAATAPQAPVMGSVSSLISGRPCPGGPAPPRHHGPPGPTFFRQQDGLLRGGYEAQEPLCPAVPPRKAVPVTSFTYINEDFRTESPPSPSSDVEDAREQRAHNAHLRGPPPKLIPVSGKLEKNMEKILIRPTAFKPVLPKPRGAPSLPSFMGPRATGLSGSQGSLTQLFGGPASSSSSSSSSSAADKPLAFSGWASGCPSGTLSDSGRNSLSSLPTYSTGGAEPTTSSPGGHLPSHGSGRGALPGPARGVPTGPSHSDSGRSSSSKSTGSLGGRVAGGLLGSGTRASPDSSSCGERSPPPPPPPPSDEALLHCVLEGKLRDREAELQQLRDSLDENEATMCQAYEERQRHWQREREALREDCAAQAQRAQRAQQLLQLQVFQLQQEKRQLQDDFAQLLQEREQLERRCATLEREQRELGPRLEETKWEVCQKSGEISLLKQQLKESQAELVQKGSELVALRVALREARATLRVSEGRARGLQEAARARELELEACSQELQRHRQEAEQLREKAGQLDAEAAGLREPPVPPATADPFLLAESDEAKVQRAAAGVGGSLRAQVERLRVELQRERRRGEEQRDSFEGERLAWQAEKEQVIRYQKQLQHNYIQMYRRNRQLEQELQQLSLELEARELADLGLAEQAPCICLEEITATEI
binding: binds

B5: VPS33B (protein, UniProt Q9H267 1-617)
chain: MAFPHRPDAPELPDFSMLKRLARDQLIYLLEQLPGKKDLFIEADLMSPLDRIANVSILKQHEVDKLYKVENKPALSSNEQLCFLVRPRIKNMRYIASLVNADKLAGRTRKYKVIFSPQKFYACEMVLEEEGIYGDVSCDEWAFSLLPLDVDLLSMELPEFFRDYFLEGDQRWINTVAQALHLLSTLYGPFPNCYGIGRCAKMAYELWRNLEEEEDGETKGRRPEIGHIFLLDRDVDFVTALCSQVVYEGLVDDTFRIKCGSVDFGPEVTSSDKSLKVLLNAEDKVFNEIRNEHFSNVFGFLSQKARNLQAQYDRRRGMDIKQMKNFVSQELKGLKQEHRLLSLHIGACESIMKKKTKQDFQELIKTEHALLEGFNIRESTSYIEEHIDRQVSPIESLRLMCLLSITENGLIPKDYRSLKTQYLQSYGPEHLLTFSNLRRAGLLTEQAPGDTLTAVESKVSKLVTDKAAGKITDAFSSLAKRSNFRAISKKLNLIPRVDGEYDLKVPRDMAYVFGGAYVPLSCRIIEQVLERRSWQGLDEVVRLLNCSDFAFTDMTKEDKASSESLRLILVVFLGGCTFSEISALRFLGREKGYRFIFLTTAVTNSARLMEAMSEVKA
binding: binds

Next, values leading:

binding: binds
Molecule: NCOA2 (from UniProt Q15596 1-1464)

binding: binds
Molecule: ARF6 (from UniProt P62330 1-175)

binding: binds
Molecule: TFAP2A (from UniProt P05549 1-437)

binding: binds
Molecule: NBS1 (endogenous) (from UniProt O60934 1-754)

binding: binds
Molecule: NCOA6 (from UniProt Q14686 1-2063)

binding: binds
Molecule: KRI1 (from UniProt Q8N9T8 1-703)

Results are given in words; binding and its absence hold for the method and conditions named. Binding seen in cells or lysates may run through a third protein. Here binding means that the protein was enriched with, or labelled near, the bait; the list need not be complete. One block for each molecule: values may come before it.
